Assay results as given in patent US11365227B2, “Peptide and pharmaceutical compositions of same for use as an antimicrobial and in cancer treatment” (UNIVERSITAT DE VALÈNCIA, priority 2017, dated 2022).
At least one structure is not confirmed: it was looked up by name or label, or the drawing left a doubt. Where a SMILES comes first, the peptide text is derived from it.

What was measured:
[1] = test system: MDA-MB-231 triple-negative breast cancer cells; assay: Cell viability MTS assay, cytotoxic effect; type: cell-based, human; details: approximately 200 μM (700 μg/mL), 0.5% bovine foetal serum, 24 h
Experimental: Cell viability was determined by the MTS method. The MDA-MB-231 cells cultured in plates with 96 wells at 37° C. in an atmosphere humidified with 10% CO2 to a density of 5×10^3 cells/well were incubated with different concentrations of the peptide PaSK for 24 h. Then 20 μL were added of the solution MTS/PMS (3-(4,5-dimethylthiazol-2-yl)-5-(3-carboxymethoxyfenyl)-2-(4-sulphophenyl)-2H-tetrazole/phenazine methosulphate) to each well and after incubating for 2 h in the dark the absorbance at 490 nm was read in a plate reader. The percentage reduction in number of cells was calculated according to the formula (1−E/C)×100, where E is the absorbance of the cells treated with the peptide and C is the absorbance of the samples of the control cells.
The cytotoxic effect of the peptide PaSK has been studied in two cell lines of triple-negative breast cancer cells, one human (MDA-MB-231) and one mouse (4T1), and a line of normal mouse mammary epithelial cells (HC-11). To this end, a cell viability MTS assay was performed, based on the use of a compound derived from tetrazolium that is reduced in live cells to form a soluble coloured product. […]

[2] = test system: 4T1 triple-negative breast cancer cells; assay: Cell viability MTS assay, cytotoxic effect; type: cell-based, mouse; details: approximately 200 μM (700 μg/mL), 0.5% bovine foetal serum, 24 h
MDA-MB-231 tumour cells = assay: Cell viability by flow cytometry (propidium iodide); type: cell-based, human; details: 200 μg/mL, 72 h

Compound: CC[C@H](C)[C@H](NC(=O)[C@H](CCCNC(=N)N)NC(=O)[C@H](CCCNC(=N)N)NC(=O)[C@H](CCCCN)NC(=O)[C@H](CC(N)=O)NC(=O)[C@H](CS)NC(=O)[C@H](Cc1ccc(O)cc1)NC(=O)CNC(=O)CNC(=O)[C@H](CCCNC(=N)N)NC(=O)[C@H](CCCCN)NC(=O)[C@H](CCCNC(=N)N)NC(=O)[C@H](CCCCN)NC(=O)[C@H](CC(C)C)NC(=O)[C@H](CC(C)C)NC(=O)[C@H](CS)NC(=O)[C@H](Cc1c[nH]cn1)NC(=O)[C@H](C)NC(=O)[C@H](C)NC(=O)[C@H](CS)NC(=O)[C@H](C)NC(=O)[C@H](C)NC(=O)[C@H](Cc1c[nH]cn1)NC(=O)[C@H](CC(N)=O)NC(=O)[C@@H](NC(=O)[C@@H](N)CCCCN)C(C)C)C(=O)N[C@@H](CS)C(=O)N[C@H](C(=O)N[C@@H](CS)C(=O)N[C@@H](CCCNC(=N)N)C(=O)N[C@@H](CC(N)=O)C(=O)O)C(C)C [PaSK] (H-KVNHAACAAHCLLKRKRGGYCNKRRICVCRN-OH; N-terminus and C-terminus assumed)
- mortality in the cells [1]: around 50%
- mortality in the cells [2]: around 50%
- cell viability (MDA-MB-231 tumour cells): 93%
- mortality percentage (MDA-MB-231 tumour cells; with respect to the control): around 5%
